These results are taken from PMC4702128.

This test concerns the target T1, FLAG-tagged NuSAP (nucleolar and spindle-associated protein) (human (cDNA library from HEK 293T cells)) (UniProt Q9BXS6).
T1 sequence: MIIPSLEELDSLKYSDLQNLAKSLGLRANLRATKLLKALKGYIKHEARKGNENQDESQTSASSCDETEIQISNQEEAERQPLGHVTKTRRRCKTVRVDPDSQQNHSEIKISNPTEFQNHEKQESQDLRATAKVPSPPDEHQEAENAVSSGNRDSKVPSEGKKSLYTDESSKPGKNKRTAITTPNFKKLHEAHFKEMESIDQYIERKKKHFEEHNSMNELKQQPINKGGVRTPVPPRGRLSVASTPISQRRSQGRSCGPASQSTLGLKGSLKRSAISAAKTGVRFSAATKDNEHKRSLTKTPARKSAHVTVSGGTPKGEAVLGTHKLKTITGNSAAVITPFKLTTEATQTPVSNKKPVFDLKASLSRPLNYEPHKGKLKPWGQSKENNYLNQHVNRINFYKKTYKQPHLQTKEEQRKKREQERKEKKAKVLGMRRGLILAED
The test is described as follows: affinity purification with mass spectrometry; anti-FLAG-M2 agarose beads with FLAG-NuSAP- or FLAG vector-expressing HEK 293T lysates, 3 h, 4 °C; bands of a Coomassie-stained gel identified by mass spectrometry and confirmed by western blotting.

No constants are given. Whether binding was seen depends on the method and setting. In cells and extracts the contact can be indirect. Here binding means that the protein was enriched with, or labelled near, the bait; the list need not be complete. Sequences can lack the tags named with a protein.

B1: Mitotic centromere-associated kinesin (MCAK), endogenous in HEK 293T (protein, UniProt Q99661 1-725)
chain: MAMDSSLQARLFPGLAIKIQRSNGLIHSANVRTVNLEKSCVSVEWAEGGATKGKEIDFDDVAAINPELLQLLPLHPKDNLPLQENVTIQKQKRRSVNSKIPAPKESLRSRSTRMSTVSELRITAQENDMEVELPAAANSRKQFSVPPAPTRPSCPAVAEIPLRMVSEEMEEQVHSIRGSSSANPVNSVRRKSCLVKEVEKMKNKREEKKAQNSEMRMKRAQEYDSSFPNWEFARMIKEFRATLECHPLTMTDPIEEHRICVCVRKRPLNKQELAKKEIDVISIPSKCLLLVHEPKLKVDLTKYLENQAFCFDFAFDETASNEVVYRFTARPLVQTIFEGGKATCFAYGQTGSGKTHTMGGDLSGKAQNASKGIYAMASRDVFLLKNQPCYRKLGLEVYVTFFEIYNGKLFDLLNKKAKLRVLEDGKQQVQVVGLQEHLVNSADDVIKMIDMGSACRTSGQTFANSNSSRSHACFQIILRAKGRMHGKFSLVDLAGNERGADTSSADRQTRMEGAEINKSLLALKECIRALGQNKAHTPFRESKLTQVLRDSFIGENSRTCMIATISPGISSCEYTLNTLRYADRVKELSPHSGPSGEQLIQMETEEMEACSNGALIPGNLSKEEEELSSQMSSFNEAMTQIRELEEKAMEELKEIIQQGPDWLELSEMTEQPDYDLETFVNKAESALAQQAKHFSALRDVIKALRLAMQLEEQASRQISSKKRPQ
With B1, the binding entry is “binds”.
